Results deposited as PubChem BioAssay AID743454 (Peter MacCallum Cancer Centre, 2014).
The whole screen tested about 18,000 reagents; shown is an unselected part. 450 of them (2.5%) count as active. 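Single biological run; no consistent viability z cut-off exists, so the class columns, not z-scores, define the calls.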

Assay: 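Genes whose loss kills vorinostat-resistant colon cancer cells under vorinostat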 (primary screen)
Cells: human HCT116-VR colon cancer cells, selected for vorinostat resistance
Reagents: siRNA pool against human genes, 40 nM siRNA pool
Timing: vorinostat for 24 h, read-out about 72 h after transfection
Conditions: vorinostat at 2.5 µM final
Read-out: 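Two measures, CellTiter-Fluor viability and luminescent caspase 3/7 activity, each as fold change against same-plate mock wells, mean of duplicates, then screen-wide robust z-score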
Direction: viability robust z-score: higher = more viable cells than screen typical; caspase robust z-score: higher = more caspase 3/7 activity than screen typical
Call rule: 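Hits are knock-downs in viability class RV1/RV2 or caspase class CA1/CA2, excluding ones that killed cells in the no-drug cell-count arm; hits then retested with single siRNAs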

The opening 2 records, ahead of the listing:
ESR2 (estrogen receptor 2) → viability hit class = no change; caspase hit class = no change; viability robust z-score = -0.6; caspase robust z-score = 2.92; Outcome = inactive
EPB41L4B (erythrocyte membrane protein band 4.1 like 4B) → viability hit class = no change; caspase hit class = no change; viability robust z-score = 0.26; caspase robust z-score = -0.57; Outcome = inactive

Main list, from the first entry:
ESR2 (estrogen receptor 2) → viability hit class = no change; caspase hit class = no change; viability robust z-score = -0.6; caspase robust z-score = 2.92; Outcome = inactive
EPB41L4B (erythrocyte membrane protein band 4.1 like 4B) → viability hit class = no change; caspase hit class = no change; viability robust z-score = 0.26; caspase robust z-score = -0.57; Outcome = inactive
ATP5F1B (ATP synthase F1 subunit beta) → viability hit class = no change; caspase hit class = no change; viability robust z-score = 1.22; caspase robust z-score = 0.72; Outcome = inactive
LMF2 (lipase maturation factor 2) → viability hit class = no change; caspase hit class = no change; viability robust z-score = -0.52; caspase robust z-score = -0.45; Outcome = inactive
RHOXF1 (Rhox homeobox family member 1) → viability hit class = no change; caspase hit class = no change; viability robust z-score = 0.18; caspase robust z-score = -0.08; Outcome = inactive
TAS2R19 (taste 2 receptor member 19) → viability hit class = no change; caspase hit class = no change; viability robust z-score = 0.38; caspase robust z-score = -1.15; Outcome = inactive
KNL1 (kinetochore scaffold 1) → viability hit class = no change; caspase hit class = no change; viability robust z-score = -1.49; caspase robust z-score = 4.47; Outcome = inactive
TNPO3 (transportin 3) → viability hit class = no change; caspase hit class = no change; viability robust z-score = -0.8; caspase robust z-score = -0.02; Outcome = inactive
DOT1L (DOT1 like histone lysine methyltransferase) → viability hit class = no change; caspase hit class = no change; viability robust z-score = 0.72; caspase robust z-score = -0.06; Outcome = inactive
GABRG2 (gamma-aminobutyric acid type A receptor subunit gamma2) → viability hit class = no change; caspase hit class = no change; viability robust z-score = -0.72; caspase robust z-score = 0.31; Outcome = inactive
ZC3H12B (zinc finger CCCH-type containing 12B) → viability hit class = no change; caspase hit class = no change; viability robust z-score = 0.98; caspase robust z-score = -0.84; Outcome = inactive
RHBDD3 (rhomboid domain containing 3) → viability hit class = no change; caspase hit class = CA2 (caspase activation); viability robust z-score = -1.29; caspase robust z-score = 6.68; Outcome = active
